# Reference: the supplement of paper PMC8728848
# Some of the results follow.
# B1: Mermaid1 (Stilbonema majum) (protein)
# chain: MGSSHHHHHHSSGLVPRGSHMAASGWLRSPQGTVVKLYRRSLSWSKADEFCKDVDGRLVVDRTADMHLFLIKNVLKEKKSRVWVGLRRTAPHSRTWIWSDGTRQNEDDLDANLWLRDEPNDAAGEEECALFMYSPWEKAWGLNDYLCRGGCRSYQFICEKWIR
# How the values were obtained:
# Assay in all cases: glycan array binding signal (z-score within array); higher = stronger binding
# Conditions in all cases: glycan notation: IUPAC condensed, linker removed
# Neu5Ac(a2-3)GalNAc = molecular target: Neu5Ac(a2-3)GalNAc
# Outline: (§1)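 Glycan array data came from 3228 arrays in the Consortium for Functional Glycomics database, and only arrays with an available protein sequence were kept. Glycan names were put into IUPAC-condensed notation, and columns mapping to the same glycan were averaged. The binding signal is a within-array Z-score, averaged across arrays of one protein sequence run at different concentrations or buffers and across linkers. A negative Z-score can be read as non-binding.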
# [1] = molecular target: Neu5Ac(a2-3)GalNAc(b1-4)GlcNAc
# Outline: as §1
# [2] = molecular target: Neu5Ac(a2-3)[GalNAc(b1-4)]Gal(b1-4)Glc
# Outline: as §1
# [3] = molecular target: Neu5Ac(a2-3)[GalNAc(b1-4)]Gal(b1-4)GlcNAc
# Outline: as §1
# [4] = molecular target: Neu5Ac(a2-3)[GalNAc(b1-4)]Gal(b1-4)GlcNAc(b1-3)GalNAc
# Outline: as §1
# [5] = molecular target: Neu5Ac(a2-3)[Neu5Ac(a2-6)]GalNAc
# Outline: as §1
# Neu5Ac(a2-6)Gal = molecular target: Neu5Ac(a2-6)Gal
# Outline: as §1
# [6] = molecular target: Neu5Ac(a2-6)Gal(b1-3)GlcNAc(b1-3)[Gal(b1-4)GlcNAc(b1-6)]Gal(b1-4)Glc
# Outline: as §1
# Neu5Ac(a2-6)Gal(b1-4)Glc = molecular target: Neu5Ac(a2-6)Gal(b1-4)Glc
# Outline: as §1
# [7] = molecular target: Neu5Ac(a2-6)Gal(b1-4)GlcNAc
# Outline: as §1
# [8] = molecular target: Neu5Ac(a2-6)Gal(b1-4)GlcNAc(b1-2)Man
# Outline: as §1
# [9] = molecular target: Neu5Ac(a2-6)Gal(b1-4)GlcNAc(b1-2)Man(a1-3)Man(b1-4)GlcNAc(b1-4)GlcNAc
# Outline: as §1
# [10] = molecular target: Neu5Ac(a2-6)Gal(b1-4)GlcNAc(b1-2)Man(a1-3)[Gal(b1-4)GlcNAc(b1-2)Man(a1-6)]Man(b1-4)GlcNAc(b1-4)GlcNAc
# Outline: as §1
# [11] = molecular target: Neu5Ac(a2-6)Gal(b1-4)GlcNAc(b1-2)Man(a1-3)[GlcNAc(b1-4)][Neu5Ac(a2-6)Gal(b1-4)GlcNAc(b1-2)Man(a1-6)]Man(b1-4)GlcNAc(b1-4)GlcNAc
# Outline: as §1
# [12] = molecular target: Neu5Ac(a2-6)Gal(b1-4)GlcNAc(b1-2)Man(a1-3)[Man(a1-6)]Man(b1-4)GlcNAc(b1-4)GlcNAc
# Outline: as §1
# [13] = molecular target: Neu5Ac(a2-6)Gal(b1-4)GlcNAc(b1-2)Man(a1-3)[Neu5Ac(a2-3)Gal(b1-4)GlcNAc(b1-2)Man(a1-6)]Man(b1-4)GlcNAc(b1-4)GlcNAc
# Outline: as §1
# [14] = molecular target: Neu5Ac(a2-6)Gal(b1-4)GlcNAc(b1-2)Man(a1-3)[Neu5Ac(a2-6)Gal(b1-4)GlcNAc(b1-2)Man(a1-6)]Man(b1-4)GlcNAc(b1-4)GlcNAc
# Outline: as §1
# [15] = molecular target: Neu5Ac(a2-6)Gal(b1-4)GlcNAc(b1-2)Man(a1-3)[Neu5Ac(a2-6)Gal(b1-4)GlcNAc(b1-2)Man(a1-6)]Man(b1-4)GlcNAc(b1-4)[Fuc(a1-6)]GlcNAc
# Outline: as §1
# [16] = molecular target: Neu5Ac(a2-6)Gal(b1-4)GlcNAc(b1-2)Man(a1-6)Man(b1-4)GlcNAc(b1-4)GlcNAc
# Outline: as §1
# [17] = molecular target: Neu5Ac(a2-6)Gal(b1-4)GlcNAc(b1-2)Man(a1-6)[Gal(b1-4)GlcNAc(b1-2)Man(a1-3)]Man(b1-4)GlcNAc(b1-4)GlcNAc
# Outline: as §1
# [18] = molecular target: Neu5Ac(a2-6)Gal(b1-4)GlcNAc(b1-2)Man(a1-6)[GlcNAc(b1-2)Man(a1-3)]Man(b1-4)GlcNAc(b1-4)GlcNAc
# Outline: as §1
# [19] = molecular target: Neu5Ac(a2-6)Gal(b1-4)GlcNAc(b1-2)Man(a1-6)[Man(a1-3)]Man(b1-4)GlcNAc(b1-4)GlcNAc
# Outline: as §1
# [20] = molecular target: Neu5Ac(a2-6)Gal(b1-4)GlcNAc(b1-2)[Neu5Ac(a2-6)Gal(b1-4)GlcNAc(b1-4)]Man(a1-3)[GlcNAc(b1-4)][Neu5Ac(a2-6)Gal(b1-4)GlcNAc(b1-2)[Neu5Ac(a2-6)Gal(b1-4)GlcNAc(b1-6)]Man(a1-6)]Man(b1-4)GlcNAc(b1-4)GlcNAc
# Outline: as §1
# [21] = molecular target: Neu5Ac(a2-6)Gal(b1-4)GlcNAc(b1-2)[Neu5Ac(a2-6)Gal(b1-4)GlcNAc(b1-4)]Man(a1-3)[GlcNAc(b1-4)][Neu5Ac(a2-6)Gal(b1-4)GlcNAc(b1-4)Man(a1-6)]Man(b1-4)GlcNAc(b1-4)GlcNAc
# Outline: as §1
# [22] = molecular target: Neu5Ac(a2-6)Gal(b1-4)GlcNAc(b1-2)[Neu5Ac(a2-6)Gal(b1-4)GlcNAc(b1-6)]Man(a1-6)[Neu5Ac(a2-6)Gal(b1-4)GlcNAc(b1-2)Man(a1-3)][GlcNAc(b1-4)]Man(b1-4)GlcNAc(b1-4)GlcNAc
# Outline: as §1
# [23] = molecular target: Neu5Ac(a2-6)Gal(b1-4)GlcNAc(b1-3)Gal(b1-3)GlcNAc
# Outline: as §1
# [24] = molecular target: Neu5Ac(a2-6)Gal(b1-4)GlcNAc(b1-3)Gal(b1-4)GlcNAc
# Outline: as §1
# [25] = molecular target: Neu5Ac(a2-6)Gal(b1-4)GlcNAc(b1-3)Gal(b1-4)GlcNAc(b1-2)Man(a1-3)[Neu5Ac(a2-6)Gal(b1-4)GlcNAc(b1-3)Gal(b1-4)GlcNAc(b1-2)Man(a1-6)]GalNAc
# Outline: as §1
# [26] = molecular target: Neu5Ac(a2-6)Gal(b1-4)GlcNAc(b1-3)Gal(b1-4)GlcNAc(b1-3)Gal(b1-4)GlcNAc
# Outline: as §1
# [27] = molecular target: Neu5Ac(a2-6)Gal(b1-4)GlcNAc(b1-3)Gal(b1-4)GlcNAc(b1-3)Gal(b1-4)GlcNAc(b1-2)Man(a1-3)[Neu5Ac(a2-6)Gal(b1-4)GlcNAc(b1-3)Gal(b1-4)GlcNAc(b1-3)Gal(b1-4)GlcNAc(b1-2)Man(a1-6)]GalNAc
# Outline: as §1
# [28] = molecular target: Neu5Ac(a2-6)Gal(b1-4)GlcNAc(b1-3)Gal(b1-4)GlcNAc(b1-3)GalNAc
# Outline: as §1
# [29] = molecular target: Neu5Ac(a2-6)Gal(b1-4)GlcNAc(b1-3)Gal(b1-4)GlcNAc(b1-3)[Neu5Ac(a2-6)Gal(b1-4)GlcNAc(b1-3)Gal(b1-4)GlcNAc(b1-6)]GalNAc
# Outline: as §1
# [30] = molecular target: Neu5Ac(a2-6)Gal(b1-4)GlcNAc(b1-3)Gal(b1-4)GlcNAc(b1-6)[Gal(b1-3)]GalNAc
# Outline: as §1
# [31] = molecular target: Neu5Ac(a2-6)Gal(b1-4)GlcNAc(b1-3)Gal(b1-4)[Fuc(a1-3)]GlcNAc(b1-3)Gal(b1-4)[Fuc(a1-3)]GlcNAc
# Outline: as §1
# [32] = molecular target: Neu5Ac(a2-6)Gal(b1-4)GlcNAc(b1-3)GalNAc
# Outline: as §1
# [33] = molecular target: Neu5Ac(a2-6)Gal(b1-4)GlcNAc(b1-3)[Neu5Ac(a2-6)Gal(b1-4)GlcNAc(b1-6)]GalNAc
# Outline: as §1
# [34] = molecular target: Neu5Ac(a2-6)Gal(b1-4)GlcNAc(b1-6)GalNAc
# Outline: as §1
# [35] = molecular target: Neu5Ac(a2-6)Gal(b1-4)GlcNAc(b1-6)[Gal(b1-3)GlcNAc(b1-3)]Gal(b1-4)Glc
# Outline: as §1
binder,measurement,setting,value
B1,glycan array binding signal (z-score),Neu5Ac(a2-3)GalNAc,-0.535
same,glycan array binding signal (z-score),[1],-0.428
same,glycan array binding signal (z-score),[2],-0.569
same,glycan array binding signal (z-score),[3],-0.469
same,glycan array binding signal (z-score),[4],-0.311
same,glycan array binding signal (z-score),[5],1.38
same,glycan array binding signal (z-score),Neu5Ac(a2-6)Gal,-0.319
same,glycan array binding signal (z-score),[6],-0.806
same,glycan array binding signal (z-score),Neu5Ac(a2-6)Gal(b1-4)Glc,-0.714
same,glycan array binding signal (z-score),[7],-0.452
same,glycan array binding signal (z-score),[8],0.757
same,glycan array binding signal (z-score),[9],-0.059
same,glycan array binding signal (z-score),[10],0.924
same,glycan array binding signal (z-score),[11],-0.894
same,glycan array binding signal (z-score),[12],0.349
same,glycan array binding signal (z-score),[13],-0.455
same,glycan array binding signal (z-score),[14],-0.383
same,glycan array binding signal (z-score),[15],-0.708
same,glycan array binding signal (z-score),[16],-0.437
same,glycan array binding signal (z-score),[17],-0.858
same,glycan array binding signal (z-score),[18],-0.629
same,glycan array binding signal (z-score),[19],-0.575
same,glycan array binding signal (z-score),[20],0.087
same,glycan array binding signal (z-score),[21],-0.884
same,glycan array binding signal (z-score),[22],-0.834
same,glycan array binding signal (z-score),[23],-0.602
same,glycan array binding signal (z-score),[24],-0.751
same,glycan array binding signal (z-score),[25],0.846
same,glycan array binding signal (z-score),[26],-0.271
same,glycan array binding signal (z-score),[27],0.874
same,glycan array binding signal (z-score),[28],-0.679
same,glycan array binding signal (z-score),[29],-0.258
same,glycan array binding signal (z-score),[30],-0.26
same,glycan array binding signal (z-score),[31],-0.822
same,glycan array binding signal (z-score),[32],-0.593
same,glycan array binding signal (z-score),[33],-0.347
same,glycan array binding signal (z-score),[34],1.02
same,glycan array binding signal (z-score),[35],-0.37

# In another format: results already given.
binder | measurement | setting | value
B1 | glycan array binding signal (z-score) | [6] | -0.806
same | glycan array binding signal (z-score) | Neu5Ac(a2-6)Gal(b1-4)Glc | -0.714
